Laboratory results from publication PMC7819943, “Rice protein-binding microarrays: a tool to detect cis-acting elements near promoter regions in rice”.
The other results are listed elsewhere or left out.

By UniProt entry, the sequences of proteins in these tests, tags left out.
UniProt Q0JBA9, entry or part of it: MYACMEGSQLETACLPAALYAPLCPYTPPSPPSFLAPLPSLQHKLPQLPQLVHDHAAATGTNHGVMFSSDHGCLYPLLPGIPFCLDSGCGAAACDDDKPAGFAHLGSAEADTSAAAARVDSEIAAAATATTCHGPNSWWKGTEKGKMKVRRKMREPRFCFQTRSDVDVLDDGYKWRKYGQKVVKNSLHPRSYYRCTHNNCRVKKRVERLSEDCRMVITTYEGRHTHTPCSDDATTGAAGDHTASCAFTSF

Biological target: OsWRKY34 (Oryza sativa, UniProt Q0JBA9 1-250)
Assay: protein-binding microarray (RPBM); PBS, 2% BSA, 51.3 ng/ul salmon testes DNA, 50 uM zinc acetate, 200 nM TF, 25 C, 1 h; high values mean tight binding
Conditions: protein: recombinant; tags: N-terminal polyhistidine and DsRed monomer fusion (pET32a); label: CyDye5-dUTP incorporated in the synthesized complementary strand; 3' TTTTT single-stranded linker to array surface; dsDNA, one strand shown
Summary of the method: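 The binding signal is fluorescence intensity per array feature (arbitrary units). Readings came from an Axon 4000B scanner after a washed, 2% BSA-blocked, double-stranded custom Agilent array had been incubated for 1 h at 25 °C with 200 nM protein and 50 µM zinc acetate. The protein was a Ni–NTA-purified transcription factor fused N-terminally to polyhistidine and DsRed, expressed in E. coli BL21-CodonPlus.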

Sequence | binding signal
AGTCATGCGAAACTCATGCATGGCCTTTTCACGTTTTTCTCGGAGTCACCTAGTGCAG | 8200 fluorescence intensity (a.u.)
TCTCCTCGTTCGTCTCTCGCCTCGTCTTCCCCGTCCTCCGCGGAGTCACCTAGTGCAG | 11900 fluorescence intensity (a.u.)
AGCTTTGACTTATCTCCTAGCTGTTTCAGTTTATATACCACGGAGTCACCTAGTGCAG | 11500 fluorescence intensity (a.u.)
TCATCGCCACCTCGCTCTCGCGCCCTCTGCTCGCGCGCATCGGAGTCACCTAGTGCAG | 10400 fluorescence intensity (a.u.)
TGCTTGCCCTGGGTTTGGTTCTTGGGTCCATCCATCTTCACGGAGTCACCTAGTGCAG | 9250 fluorescence intensity (a.u.)
ATCAATCATATGATCCTTTGATAATTTACCTTATGTTTCCCGGAGTCACCTAGTGCAG | 8380 fluorescence intensity (a.u.)
TATTAGCGCGCCCACTAATTCAGTTCAATTCTCAACTTAACGGAGTCACCTAGTGCAG | 8790 fluorescence intensity (a.u.)
GGGTTGCGCGGGTGGGCGGCGGCGGTGAAGGTGCGTGTGTCGGAGTCACCTAGTGCAG | 11600 fluorescence intensity (a.u.)
TTTTGTGTATGTTTCGGTGGGAATTTGAGGGTTGTGTTTTCGGAGTCACCTAGTGCAG | 14200 fluorescence intensity (a.u.)
CGGGCCGGCACCGCTTCAATATTCCGTCTTTGCACCCTTTCGGAGTCACCTAGTGCAG | 8150 fluorescence intensity (a.u.)
CGCCTCCGCCTCCTCGCACCGAACCGCCTCGGCGCGAGCGCGGAGTCACCTAGTGCAG | 8440 fluorescence intensity (a.u.)
GCGAGCGACCGTCGCTCGTCCTGCTGCTTCCGCCACATCGCGGAGTCACCTAGTGCAG | 9160 fluorescence intensity (a.u.)
CCAGGCCGAACCCTAGCGCCGCCGCCACATCGATCTACCTCGGAGTCACCTAGTGCAG | 9280 fluorescence intensity (a.u.)
GGTCTGTGGCCAGTCATCTTTTATTGGTTATCCTAACACTCGGAGTCACCTAGTGCAG | 9240 fluorescence intensity (a.u.)
ATTGCATCTCTTCTTCAAAAGTATACAACAAATATGTTTTCGGAGTCACCTAGTGCAG | 9070 fluorescence intensity (a.u.)
AGCTACCTGTTTTCACGAGTTTAGAAGCTTTTTTTATTCTCGGAGTCACCTAGTGCAG | 8330 fluorescence intensity (a.u.)
GTTTGCATCGAGGACACTGGACTTTGATCCCATAGCTTCACGGAGTCACCTAGTGCAG | 8950 fluorescence intensity (a.u.)
ACAACGAATTTAGACATGCTTCCTATCCAGATTCATTGTACGGAGTCACCTAGTGCAG | 10700 fluorescence intensity (a.u.)
ACACTTGCATTCTTATGAAAATCCTACGTTTTTTCTATTTCGGAGTCACCTAGTGCAG | 8960 fluorescence intensity (a.u.)
TTGGTTGGGCACTTGCGGTTGATCTGGTCCGTTGCTTCAGCGGAGTCACCTAGTGCAG | 11100 fluorescence intensity (a.u.)
GATTTGAGCTCCAGACGAGCCGAGCCCGAGCGTCTCCCTACGGAGTCACCTAGTGCAG | 8750 fluorescence intensity (a.u.)

Retrieved one by one from above (three):
Sequence | binding signal
GCGAGCGACCGTCGCTCGTCCTGCTGCTTCCGCCACATCGCGGAGTCACCTAGTGCAG | 9160 fluorescence intensity (a.u.)
AGTCATGCGAAACTCATGCATGGCCTTTTCACGTTTTTCTCGGAGTCACCTAGTGCAG | 8200 fluorescence intensity (a.u.)
TATTAGCGCGCCCACTAATTCAGTTCAATTCTCAACTTAACGGAGTCACCTAGTGCAG | 8790 fluorescence intensity (a.u.)

(next part)

Sequence | binding signal
CTCATCATCCCGTCCAAAATCAGCTGCCCGCGCCGACGACCGGAGTCACCTAGTGCAG | 8700 fluorescence intensity (a.u.)
GTTAATTGAGGGGCGGTAATATATAATTAGGGGAGAGGAGCGGAGTCACCTAGTGCAG | 9740 fluorescence intensity (a.u.)
GGTGTGGTATCTTTCCCAAGATTTTCTTATTCTTCTTCTTCGGAGTCACCTAGTGCAG | 9630 fluorescence intensity (a.u.)
GGAGTTCCATTGGATTACCTGGGGACTGGGGTAGTAGATTCGGAGTCACCTAGTGCAG | 9760 fluorescence intensity (a.u.)
CCTCTCTGATTCGTCACCGCCACCGCCGCGTCGTCCCGCGCGGAGTCACCTAGTGCAG | 9730 fluorescence intensity (a.u.)
TTAATTTGCACGGTTTCTGTCCAGTCTCATCTTTAGGGCCCGGAGTCACCTAGTGCAG | 8420 fluorescence intensity (a.u.)
CCGCGTCCGTACTCTCTAGCCTGCGGGTAAGCAACGAACTCGGAGTCACCTAGTGCAG | 8310 fluorescence intensity (a.u.)
CTATGATTTGTGAGCTTCCCTCTTCTTTTTGTTGCGATTACGGAGTCACCTAGTGCAG | 8560 fluorescence intensity (a.u.)
GTACTTTCTTGACTAATCATCTATTGTGTGCACACTTTTCCGGAGTCACCTAGTGCAG | 11200 fluorescence intensity (a.u.)
TATTTGTGCTGAGATGTTGCTAGCTATTGATATTAACGTACGGAGTCACCTAGTGCAG | 10300 fluorescence intensity (a.u.)
ACTCATTTCGTCGCCGTGTCCCGCGTGGCTCGCCGCCATGCGGAGTCACCTAGTGCAG | 9480 fluorescence intensity (a.u.)
ATTTTGGTTTAAGTTTTTGTTTCTTATCAGCTCTGAACATCGGAGTCACCTAGTGCAG | 8240 fluorescence intensity (a.u.)
GGTGTATTGGAGTTGTCTTGTGGATTTTTCTTCTGATGATCGGAGTCACCTAGTGCAG | 11500 fluorescence intensity (a.u.)
AGCTCCGATTTGCACAATTGCCTCATCTTGTCTTTCTCGACGGAGTCACCTAGTGCAG | 8020 fluorescence intensity (a.u.)
CATAACATTTGCTTCTTTCTTTGATACCTTGATTTCAGTTCGGAGTCACCTAGTGCAG | 11200 fluorescence intensity (a.u.)
TCATGTTCTTTTTATAGGGGTGGAAAATACGAGCAGATAACGGAGTCACCTAGTGCAG | 13100 fluorescence intensity (a.u.)
ATATGGCCCATTGACCTAGTCCAACCGCTAAGTCATCATTCGGAGTCACCTAGTGCAG | 8230 fluorescence intensity (a.u.)
AAATGGACCATTACCTCGCTAGCTCCCTTGAGGCTTCTTCCGGAGTCACCTAGTGCAG | 8730 fluorescence intensity (a.u.)
TTTGCCATCCCTTCCTTTCAGTAGACCATCACCACCCCTACGGAGTCACCTAGTGCAG | 8340 fluorescence intensity (a.u.)
GATGTGACTTTATACTTTGGTGTGTTTGCTGGTATATGTTCGGAGTCACCTAGTGCAG | 14400 fluorescence intensity (a.u.)
ATAAACTATCGATTCACCGGTTGCTTAGTTGTTCTTCTAGCGGAGTCACCTAGTGCAG | 9190 fluorescence intensity (a.u.)

Sequence | binding signal
TCTGTAGTAGTCATCATCACCTAGGTGCCTACCCTTTTGACGGAGTCACCTAGTGCAG | 9440 fluorescence intensity (a.u.)
TGTAACATAGGCCGATCGCCACTCCACCGCCGCCTCCAAACGGAGTCACCTAGTGCAG | 8960 fluorescence intensity (a.u.)
CGTGCGCCGCTCAGCTGTATGACATGTGGGCCCGATGATCCGGAGTCACCTAGTGCAG | 8720 fluorescence intensity (a.u.)
TCTCCTCGGTCTCCGTTAGGTTCCCGTCAAAACAGGCAATCGGAGTCACCTAGTGCAG | 8940 fluorescence intensity (a.u.)
GAATACTTTATGCGTGACTTATCTTTTTAATTTTTTTCATCGGAGTCACCTAGTGCAG | 8560 fluorescence intensity (a.u.)
TTGTTGTAAAGCTTATGGGTCTACTTTCATATGGTTTTGGCGGAGTCACCTAGTGCAG | 64100 fluorescence intensity (a.u.)
CTTCGCTTCATTAATTCCTTCTTCGATTCATTCCTCACGCCGGAGTCACCTAGTGCAG | 8050 fluorescence intensity (a.u.)
CATTTTCATATTACTAACCTTTAACCAATGATGGAAGGCACGGAGTCACCTAGTGCAG | 13200 fluorescence intensity (a.u.)
ATTATTATATCATATACTCTAATAGACTTGCTCTCGTTTTCGGAGTCACCTAGTGCAG | 10100 fluorescence intensity (a.u.)
TTTCATGGTATGTGCCCCTCCGCTTATACACGTTGTAGTACGGAGTCACCTAGTGCAG | 8510 fluorescence intensity (a.u.)
AAGCATGCCTGACATTTTCATTGGTCTGTTTGGTTCAAGTCGGAGTCACCTAGTGCAG | 8810 fluorescence intensity (a.u.)
TCAGAGCCGTTCAACCCCACGCGTGGACACAATCTGACCACGGAGTCACCTAGTGCAG | 8450 fluorescence intensity (a.u.)
GTAGCAAATTTAGGAGCAGTATGTAGGGGCTTATAGTACTCGGAGTCACCTAGTGCAG | 8450 fluorescence intensity (a.u.)
GCGGCCAAATTCCCACCGAACTGAACCTCTTCCTTTTTTTCGGAGTCACCTAGTGCAG | 10300 fluorescence intensity (a.u.)
CACAGTTGATGCTCATCACTTTCGCCTGCACTTGCACATACGGAGTCACCTAGTGCAG | 10200 fluorescence intensity (a.u.)
CCATTTATAGGTGTGTGAGGTGTGGTGTGCATGTGTATTTCGGAGTCACCTAGTGCAG | 8960 fluorescence intensity (a.u.)
TTCCTGCTGTTTCGGATCCTATTTAGTATCTTATTTAGATCGGAGTCACCTAGTGCAG | 8080 fluorescence intensity (a.u.)
CTTCCTCATTGTTTTCCTAACCCTTTATCCATTTTGCTATCGGAGTCACCTAGTGCAG | 8280 fluorescence intensity (a.u.)
TTTATAAAGAGTTTGCAAGTTTTTTTTTTTACATGTATCACGGAGTCACCTAGTGCAG | 9080 fluorescence intensity (a.u.)
ATCAGCAGCGATTTTTTTTTCAGTTTTTGTTTTTTCATTTCGGAGTCACCTAGTGCAG | 11200 fluorescence intensity (a.u.)
GCGTTGTGGGTGTCTTGTGTTGTACTGCGTAATTCTTAAACGGAGTCACCTAGTGCAG | 15000 fluorescence intensity (a.u.)

Sequence | binding signal
TCCGGCGGCATCTCCACCGGCCAACACCTGCAGCGCCGCCCGGAGTCACCTAGTGCAG | 8740 fluorescence intensity (a.u.)
ACAACTTACAGTACACCGGCTATCTCGTACTAAAACCGCTCGGAGTCACCTAGTGCAG | 10800 fluorescence intensity (a.u.)
ATAATGCTCTCTCCTACTCATCCTTTCCGGACTGCTCGGACGGAGTCACCTAGTGCAG | 8780 fluorescence intensity (a.u.)
GATTTGCCTTGTTGCATTCCGCATGGAGCCTAACATATTTCGGAGTCACCTAGTGCAG | 9470 fluorescence intensity (a.u.)
TGGTTGGTGGTATAGATAGTAGGTATGAGTATTTTCTTTCCGGAGTCACCTAGTGCAG | 13100 fluorescence intensity (a.u.)
TAGGTGTCTAGTCCCGACTGATTTTCGTTTCTTATAGCGTCGGAGTCACCTAGTGCAG | 8040 fluorescence intensity (a.u.)
TTACTTCACCCTGTTGCTTCGGTGGACTTTCTGGTGATCTCGGAGTCACCTAGTGCAG | 12200 fluorescence intensity (a.u.)
CTCATAAGCGTCAAGTTTTTTTCCCCTACCTTTCTTGTTACGGAGTCACCTAGTGCAG | 10900 fluorescence intensity (a.u.)
ATCCACCATCCATCCACGTCGCGACGCGTCCAACTCCATCCGGAGTCACCTAGTGCAG | 9260 fluorescence intensity (a.u.)
GGGGACAATTGGAATTCTATTTTTCTTTTGCCATGGTTTACGGAGTCACCTAGTGCAG | 10600 fluorescence intensity (a.u.)
GTGGTGAATGGGTTGTCAATTTATTTTTTTACATGGATTTCGGAGTCACCTAGTGCAG | 10500 fluorescence intensity (a.u.)
AGAGTTTTCTTCTTGTTTCTCATGTTTGACTGGTGCCTGACGGAGTCACCTAGTGCAG | 9880 fluorescence intensity (a.u.)
TCCTTTTTGTTTTTCTTCGGGTCAACCCAGGCTCAGATCTCGGAGTCACCTAGTGCAG | 9300 fluorescence intensity (a.u.)
CATGAGTTGACCACTACAGTGCTCTGATCAACTCGCTATACGGAGTCACCTAGTGCAG | 8250 fluorescence intensity (a.u.)
CAATCAGTTCGTTCTTGCACCTACTGCACTAGCTTTCTCCCGGAGTCACCTAGTGCAG | 8660 fluorescence intensity (a.u.)
GATGAAATGCCCTTATTGTTCTTAGTCTCTTTTTTTTTTTCGGAGTCACCTAGTGCAG | 9370 fluorescence intensity (a.u.)
CTCTGCTGCCGCCACTGTTGCCCATCTCCTTCTTATCGCTCGGAGTCACCTAGTGCAG | 14900 fluorescence intensity (a.u.)
CCTCCTGGATACACTCCTCGCCGATGCCCCGCAGCAACTCCGGAGTCACCTAGTGCAG | 8810 fluorescence intensity (a.u.)
GGCGTCTCTTCAGCTGGTGGTTCTTGCACCGGTGGTTCTACGGAGTCACCTAGTGCAG | 8370 fluorescence intensity (a.u.)
GCCTCGCCCTCGCGTCGTCACCTCTCGCCATGGCCCACTACGGAGTCACCTAGTGCAG | 9950 fluorescence intensity (a.u.)
ACCTGGTATGTAATTCGCTCTGCTTTTTCATGGTGTAGTGCGGAGTCACCTAGTGCAG | 8140 fluorescence intensity (a.u.)
